# Measured values from the supplement of paper PMC12889115.
# Some of the results follow. These are raw signals, not scaled to a control.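 Primary screen: polymyxin B was added at a level permeabilizing Salmonella outer membranes while sparing inner membranes. DMSO wells, both with and without polymyxin B, established maximum growth. Plate-to-plate variation meant each plate was ranked on its own, and the lowest-OD600 compounds were selected as hits.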
# System: Salmonella enterica serovar Typhimurium SL1344
# Assay: bacterial growth OD600 after 18 h with compound and polymyxin B; higher = more bacterial growth (less inhibition)
# Settings: 50 µM, Mueller-Hinton broth
SMILES,bacterial growth OD600 (polymyxin B 1 µg/mL),bacterial growth OD600 (polymyxin B 0.75 µg/mL)
CN1CCCC(CN(CCc2ccccc2)C(=O)CCN2CCCCC2=O)C1 (stereo not drawn),1,–
COc1ccccc1NC(=O)Nc1ccnn1C1CCN(C(=O)Cc2ccncc2)CC1,–,0.826
COC(=O)[C@]1(C)C[C@H](C(=O)NCCc2cnccn2)[C@H](c2ccccc2C)N1C,–,0.863
CCNC(=O)c1cn(CC(C)C)cc(C(=O)NC2CCCCCC2)c1=O,–,0.984
C=CCC(=O)N1CCCC1C(=O)Nc1ccccc1Oc1cccnc1 (stereo not drawn),0.958,–
CC(C)=CCN1CCOc2ccc(C(C)(O)CN(C)C)cc2C1 (stereo not drawn),–,0.788
CCN(Cc1ccccc1)Cc1cnc(S(=O)(=O)CC)n1CCc1ccccc1,0.004,–
CC(=O)c1ccccc1C(=O)N1CCC(n2nccc2NC(=O)C(C)(C)C)CC1,1.14,–
